Test results: paper PMC5014334

Target: T1, synthetic peptide vimentin (aa 45–65)
T1 sequence (peptide): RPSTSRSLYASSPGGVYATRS
Assay: far-Western, overlay or dot blot; dot blot with synthetic peptide vimentin-(45–65) and purified GST-p17; GST and IgG as negative controls; who was dotted is not told; both purified

GST-p17 fusion protein (avian reovirus (ARV), strain S1133)
binding: binds

These are yes or no findings as the source states them, for the method shown. A result given as binding can be weak or reduced; the word gives no strength.
